# Data source: PubChem BioAssay AID1259266 (Sanger Institute, 2017)
# Screen: 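Essential genes and drug synergy among kinases and colorectal-mutated genes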 (primary screen)
# Cells: LS123 human colorectal cancer cells
# Knock-down reagent: siRNA pool against human genes
# Challenge: anchor drugs BYL719 (1 µM), cetuximab (5 µg/ml) or trametinib (10 nM), each chosen to barely slow growth alone; DMSO vehicle as the drug-free arm
# Measurement: 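Replicate-averaged viability scaled to non-targeting pools, robust z-score for siRNA alone, and a synergy score per anchor drug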
# Reading the numbers: robust z-score, knock-down alone: higher = more cells surviving after knock-down; viability, knock-down alone: higher = more viable cells; synergy score with trametinib: higher = stronger synthetic lethality with drug
# Hit rule: 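a knock-down counts as essential if its z-score without drug is under -3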
# Meaning of the calls: active = essential (knock-down alone cuts viability); inactive = no change
# This is an unselected part of 794 reagents tested. Of all reagents, 16 (2%) were called active. 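Calls reflect knock-down alone, not drug synergy; viability seems capped at 1 and z-scores at 0.585.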 Unmarked entries are inactive. Further read-outs or replicates are left out here. Not stated in the record: the amount of reagent, the time to read-out.
Gene,"robust z-score, knock-down alone","viability, knock-down alone (fraction of control)",synergy score with trametinib
PDGFRL,0.585,1,-0.0251
CDK6,0.585,1,-0.13
MELK,0.585,1,-0.102
SRPK1,0.585,1,-0.0125
MAP3K5,0.585,1,-0.0501
MAPK11,0.564,0.999,-0.0565
PIK3R4,-0.07,0.961,-0.0737
MAST4,0.585,1,-0.18
DYRK2,0.585,1,-0.0785
ADK,0.585,1,-0.135
MYO3B,0.376,0.988,0.0124
DYRK3,-0.219,0.952,-0.126
YES1,-1.07,0.902,-0.0133
FN1,0.585,1,-0.152
NF1,0.585,1,-0.0328
FER,0.585,1,-0.0622
ACO1,-1.47,0.878,0.00558
TLK1,-0.451,0.938,0.0154
MAPK7,0.585,1,-0.0915
MYLK,0.585,1,0.0379
NEK6,0.585,1,-0.109
RIPK1,-1.27,0.89,-0.0462
AURKC,-4.37 (active),0.706,0.0637
PRKCA,0.282,0.982,0.00851
FXR1,0.585,1,-0.093
MATK,-0.604,0.929,-0.0507
PRKAA2,0.585,1,-0.184
CDKL5,0.585,1,-0.1
DGKB,-2.09,0.841,-0.124
PGK1,0.445,0.992,-0.0818
TSSK3,0.248,0.98,-0.0292
MYO3A,0.585,1,-0.0355
MED12,-0.882,0.913,-0.121
SLK,0.585,1,-0.135
BCR,0.585,1,0.0493
CDK5R2,0.585,1,-0.186
PFKM,0.585,1,-0.0472
FLT3,-1.15,0.897,0.00579
PDXK,0.492,0.994,-0.13
TTK,0.219,0.978,-0.0355
RBM10,-0.342,0.945,-0.000187
KSR2,0.14,0.974,-0.111
CPNE3,0.585,1,-0.111
TBK1,-0.0405,0.963,0.0306
SGK3,0.282,0.982,-0.0563
MAP4K2,0.322,0.984,0.0228
ERBB3,-1.17,0.896,-0.084
CDC42BPG,0.585,1,-0.127
ATR,0.529,0.997,-0.0454
DCLK1,0.552,0.998,-0.131

Records above whose gene name begins with T or t:
Gene,"robust z-score, knock-down alone","viability, knock-down alone (fraction of control)",synergy score with trametinib
TLK1,-0.451,0.938,0.0154
TSSK3,0.248,0.98,-0.0292
TTK,0.219,0.978,-0.0355
TBK1,-0.0405,0.963,0.0306
